Only a part is listed here, and it is no random draw. Calls are pooled over several reports, among them a noisy single-well screen. The list shows a part of the results.
Columns and labels:
Conditions in all cases: stereoisomer not certain
[1] = tested on: T1, OR5T2
T1 sequence (whole entry): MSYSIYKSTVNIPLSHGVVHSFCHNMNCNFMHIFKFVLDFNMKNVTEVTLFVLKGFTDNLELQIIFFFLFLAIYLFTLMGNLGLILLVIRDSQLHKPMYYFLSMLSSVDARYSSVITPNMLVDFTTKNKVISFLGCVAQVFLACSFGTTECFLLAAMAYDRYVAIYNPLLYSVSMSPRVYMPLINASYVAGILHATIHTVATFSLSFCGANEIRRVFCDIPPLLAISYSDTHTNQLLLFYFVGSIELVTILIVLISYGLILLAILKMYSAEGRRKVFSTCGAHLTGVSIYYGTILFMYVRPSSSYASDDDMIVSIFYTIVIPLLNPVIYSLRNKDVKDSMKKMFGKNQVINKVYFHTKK
In short: (§1)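 Values were gathered from published papers (main text and supplementary material), with extra details requested from the original authors when needed, and checked for typos and inconsistencies. Each receptor–molecule pair is called responsive (active) if the original authors judged the measured signal statistically different from baseline, and non-responsive (inactive) otherwise. Assay methods varied by source, often transient mammalian cell-line luciferase assays. Recorded details include cell line, G-protein, co-transfected protein and tags.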

[2] = tested on: T2, OR5T2; remark: listed apart in the source
T2 sequence (whole entry): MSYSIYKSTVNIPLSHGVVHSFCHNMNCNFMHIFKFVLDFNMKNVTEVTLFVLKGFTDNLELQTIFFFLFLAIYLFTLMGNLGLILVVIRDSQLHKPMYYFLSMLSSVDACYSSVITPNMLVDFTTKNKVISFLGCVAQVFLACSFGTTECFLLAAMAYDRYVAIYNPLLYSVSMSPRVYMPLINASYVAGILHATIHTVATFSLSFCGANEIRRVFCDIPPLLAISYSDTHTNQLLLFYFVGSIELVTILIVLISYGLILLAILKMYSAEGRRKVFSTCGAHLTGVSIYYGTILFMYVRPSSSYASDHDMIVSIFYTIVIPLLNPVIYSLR
In short: as §1

[3] = tested on: T3, OR5T3
T3 sequence (whole entry): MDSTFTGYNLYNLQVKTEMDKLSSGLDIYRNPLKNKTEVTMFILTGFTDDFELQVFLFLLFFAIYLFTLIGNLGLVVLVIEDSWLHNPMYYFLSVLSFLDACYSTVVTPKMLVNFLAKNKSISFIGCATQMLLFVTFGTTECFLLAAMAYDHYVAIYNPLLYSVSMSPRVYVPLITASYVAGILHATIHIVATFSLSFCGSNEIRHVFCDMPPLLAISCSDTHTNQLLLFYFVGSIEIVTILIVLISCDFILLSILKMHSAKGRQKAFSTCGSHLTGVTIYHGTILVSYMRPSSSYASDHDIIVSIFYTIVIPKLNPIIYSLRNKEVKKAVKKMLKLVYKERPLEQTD
In short: as §1

[4] = biological target: T4, OR5V1 (Homo sapiens) (UniProt Q9UGF6)
T4 sequence (whole entry): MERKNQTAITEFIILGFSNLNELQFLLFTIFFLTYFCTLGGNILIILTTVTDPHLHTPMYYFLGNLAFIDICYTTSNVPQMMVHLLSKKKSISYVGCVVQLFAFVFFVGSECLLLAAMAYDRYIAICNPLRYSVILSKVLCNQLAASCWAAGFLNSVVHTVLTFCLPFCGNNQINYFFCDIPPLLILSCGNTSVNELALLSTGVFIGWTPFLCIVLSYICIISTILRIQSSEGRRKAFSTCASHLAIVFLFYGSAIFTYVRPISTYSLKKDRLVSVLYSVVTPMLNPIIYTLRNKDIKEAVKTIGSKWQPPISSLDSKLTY
In short: as §1

[5] = tested on: T5, OR5W2
T5 sequence (whole entry): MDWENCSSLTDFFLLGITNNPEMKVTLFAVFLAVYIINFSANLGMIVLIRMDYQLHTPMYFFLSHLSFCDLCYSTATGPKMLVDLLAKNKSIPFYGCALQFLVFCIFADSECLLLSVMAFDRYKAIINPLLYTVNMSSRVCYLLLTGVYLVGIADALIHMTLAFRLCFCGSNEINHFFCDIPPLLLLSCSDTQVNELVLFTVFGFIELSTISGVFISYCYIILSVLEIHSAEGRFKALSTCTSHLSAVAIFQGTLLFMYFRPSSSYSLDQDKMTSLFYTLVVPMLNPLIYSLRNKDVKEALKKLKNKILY
In short: as §1

[6] = biological target: T6, OR6A2 (Homo sapiens) (UniProt O95222)
T6 sequence (whole entry): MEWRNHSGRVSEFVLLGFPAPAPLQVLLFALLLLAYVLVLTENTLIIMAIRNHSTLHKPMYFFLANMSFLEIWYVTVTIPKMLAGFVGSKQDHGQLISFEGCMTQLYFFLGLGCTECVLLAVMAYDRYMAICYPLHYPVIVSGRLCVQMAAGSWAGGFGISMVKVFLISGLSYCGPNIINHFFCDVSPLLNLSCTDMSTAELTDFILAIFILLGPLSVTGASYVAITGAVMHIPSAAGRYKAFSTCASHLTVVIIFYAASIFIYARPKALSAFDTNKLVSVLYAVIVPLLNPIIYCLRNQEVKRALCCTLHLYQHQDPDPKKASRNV
In short: as §1

[7] = tested on: T7, OR6B1
T7 sequence (whole entry): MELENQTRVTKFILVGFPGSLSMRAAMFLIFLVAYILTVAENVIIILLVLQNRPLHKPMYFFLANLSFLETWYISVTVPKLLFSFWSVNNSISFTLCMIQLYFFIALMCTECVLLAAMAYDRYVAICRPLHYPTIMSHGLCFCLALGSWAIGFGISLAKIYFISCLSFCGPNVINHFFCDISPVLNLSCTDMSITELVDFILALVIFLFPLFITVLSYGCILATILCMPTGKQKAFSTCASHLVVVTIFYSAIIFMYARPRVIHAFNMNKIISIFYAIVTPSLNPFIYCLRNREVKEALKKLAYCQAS
In short: as §1

[8] = tested on: T8, OR6B2
T8 sequence (whole entry): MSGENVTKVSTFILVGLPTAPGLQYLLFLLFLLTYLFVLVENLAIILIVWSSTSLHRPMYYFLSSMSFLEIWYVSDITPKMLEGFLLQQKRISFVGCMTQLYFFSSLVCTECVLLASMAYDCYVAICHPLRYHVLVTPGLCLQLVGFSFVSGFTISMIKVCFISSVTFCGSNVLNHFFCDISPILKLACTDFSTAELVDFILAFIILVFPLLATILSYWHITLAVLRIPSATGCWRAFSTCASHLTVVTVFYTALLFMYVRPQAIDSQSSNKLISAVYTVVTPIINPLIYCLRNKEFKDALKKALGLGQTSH
In short: as §1

[9] = tested on: T9, OR6B3
T9 sequence (whole entry): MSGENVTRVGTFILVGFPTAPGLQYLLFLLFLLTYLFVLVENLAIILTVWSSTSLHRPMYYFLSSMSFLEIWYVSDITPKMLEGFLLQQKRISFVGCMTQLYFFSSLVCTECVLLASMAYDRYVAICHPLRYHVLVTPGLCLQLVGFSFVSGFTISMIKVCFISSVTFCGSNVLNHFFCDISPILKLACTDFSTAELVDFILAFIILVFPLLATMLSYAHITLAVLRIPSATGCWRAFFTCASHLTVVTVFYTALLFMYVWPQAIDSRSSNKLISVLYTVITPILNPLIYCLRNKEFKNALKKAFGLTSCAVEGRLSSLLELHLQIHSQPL
In short: as §1

[10] = tested on: T10, OR6C1
T10 sequence (whole entry): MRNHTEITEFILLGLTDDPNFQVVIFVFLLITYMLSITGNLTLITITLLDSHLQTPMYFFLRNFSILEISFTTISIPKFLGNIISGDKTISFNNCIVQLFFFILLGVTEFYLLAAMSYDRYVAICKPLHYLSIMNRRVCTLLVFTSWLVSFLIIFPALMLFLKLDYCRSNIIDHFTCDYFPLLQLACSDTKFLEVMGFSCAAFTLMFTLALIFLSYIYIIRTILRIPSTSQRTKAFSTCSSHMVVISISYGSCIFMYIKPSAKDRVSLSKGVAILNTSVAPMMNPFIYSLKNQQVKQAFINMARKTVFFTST
In short: as §1

Measured: odorant receptor agonist call

CCCCOC(C)=O
inactive: all assays above

Source: the M2OR odorant receptor database
